Results on 37 targets are retold here after the supplement of paper PMC6411743.

Sequences of proteins named here, by UniProt entry; tags and fusion partners are left off. A change or cut given only in a name is not applied to a line headed by its entry.
UniProt Q9UFW8: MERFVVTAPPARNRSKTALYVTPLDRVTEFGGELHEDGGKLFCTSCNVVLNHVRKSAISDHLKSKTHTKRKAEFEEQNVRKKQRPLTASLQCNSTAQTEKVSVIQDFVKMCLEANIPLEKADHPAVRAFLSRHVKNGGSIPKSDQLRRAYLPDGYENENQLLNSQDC
UniProt Q9UEU0: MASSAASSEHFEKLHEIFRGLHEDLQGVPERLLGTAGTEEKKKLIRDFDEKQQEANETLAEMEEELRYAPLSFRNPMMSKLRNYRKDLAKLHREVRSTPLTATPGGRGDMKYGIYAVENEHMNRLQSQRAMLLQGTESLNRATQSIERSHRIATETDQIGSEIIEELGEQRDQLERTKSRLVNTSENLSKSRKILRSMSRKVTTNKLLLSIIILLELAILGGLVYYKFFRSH
UniProt Q9UBU6: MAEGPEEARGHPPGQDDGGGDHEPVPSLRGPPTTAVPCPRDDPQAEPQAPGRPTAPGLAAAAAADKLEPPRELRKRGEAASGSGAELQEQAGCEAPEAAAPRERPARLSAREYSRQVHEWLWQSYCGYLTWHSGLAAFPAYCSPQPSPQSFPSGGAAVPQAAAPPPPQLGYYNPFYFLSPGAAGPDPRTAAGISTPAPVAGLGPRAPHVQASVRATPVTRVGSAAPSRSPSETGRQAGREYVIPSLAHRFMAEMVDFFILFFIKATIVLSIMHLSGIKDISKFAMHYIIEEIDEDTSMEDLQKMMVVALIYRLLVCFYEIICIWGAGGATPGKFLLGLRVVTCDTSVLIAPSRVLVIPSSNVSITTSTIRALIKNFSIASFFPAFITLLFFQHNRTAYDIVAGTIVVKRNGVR
UniProt Q9UPZ3: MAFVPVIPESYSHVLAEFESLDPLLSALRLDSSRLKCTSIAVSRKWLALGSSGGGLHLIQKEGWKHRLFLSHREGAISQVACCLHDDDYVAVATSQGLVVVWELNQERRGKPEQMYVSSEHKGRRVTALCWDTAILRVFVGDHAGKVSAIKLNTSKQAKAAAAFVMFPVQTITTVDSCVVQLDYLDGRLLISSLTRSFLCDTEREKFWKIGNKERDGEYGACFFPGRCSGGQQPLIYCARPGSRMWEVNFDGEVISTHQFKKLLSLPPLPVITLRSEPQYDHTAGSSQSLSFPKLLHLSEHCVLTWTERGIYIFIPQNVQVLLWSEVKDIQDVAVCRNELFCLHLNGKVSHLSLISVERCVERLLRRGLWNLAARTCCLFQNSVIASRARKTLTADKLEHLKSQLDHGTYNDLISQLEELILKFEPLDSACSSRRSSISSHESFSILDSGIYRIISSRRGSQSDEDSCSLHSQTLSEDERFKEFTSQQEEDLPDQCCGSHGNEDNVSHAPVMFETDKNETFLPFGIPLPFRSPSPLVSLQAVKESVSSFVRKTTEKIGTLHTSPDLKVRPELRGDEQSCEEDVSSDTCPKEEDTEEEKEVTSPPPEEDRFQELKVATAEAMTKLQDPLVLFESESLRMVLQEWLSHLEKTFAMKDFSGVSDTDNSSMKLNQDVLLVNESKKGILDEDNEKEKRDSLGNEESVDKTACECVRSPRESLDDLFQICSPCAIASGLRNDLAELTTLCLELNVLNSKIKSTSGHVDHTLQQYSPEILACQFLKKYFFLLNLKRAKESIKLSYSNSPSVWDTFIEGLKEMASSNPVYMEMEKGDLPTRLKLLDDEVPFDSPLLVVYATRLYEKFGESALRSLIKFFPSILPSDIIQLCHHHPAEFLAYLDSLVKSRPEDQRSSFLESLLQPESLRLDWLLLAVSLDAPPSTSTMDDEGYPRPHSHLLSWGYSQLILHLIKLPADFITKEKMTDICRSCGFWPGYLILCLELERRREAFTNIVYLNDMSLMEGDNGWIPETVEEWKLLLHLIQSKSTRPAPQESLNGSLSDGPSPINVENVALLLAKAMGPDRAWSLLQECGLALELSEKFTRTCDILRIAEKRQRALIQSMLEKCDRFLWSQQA
UniProt Q9Y2R4: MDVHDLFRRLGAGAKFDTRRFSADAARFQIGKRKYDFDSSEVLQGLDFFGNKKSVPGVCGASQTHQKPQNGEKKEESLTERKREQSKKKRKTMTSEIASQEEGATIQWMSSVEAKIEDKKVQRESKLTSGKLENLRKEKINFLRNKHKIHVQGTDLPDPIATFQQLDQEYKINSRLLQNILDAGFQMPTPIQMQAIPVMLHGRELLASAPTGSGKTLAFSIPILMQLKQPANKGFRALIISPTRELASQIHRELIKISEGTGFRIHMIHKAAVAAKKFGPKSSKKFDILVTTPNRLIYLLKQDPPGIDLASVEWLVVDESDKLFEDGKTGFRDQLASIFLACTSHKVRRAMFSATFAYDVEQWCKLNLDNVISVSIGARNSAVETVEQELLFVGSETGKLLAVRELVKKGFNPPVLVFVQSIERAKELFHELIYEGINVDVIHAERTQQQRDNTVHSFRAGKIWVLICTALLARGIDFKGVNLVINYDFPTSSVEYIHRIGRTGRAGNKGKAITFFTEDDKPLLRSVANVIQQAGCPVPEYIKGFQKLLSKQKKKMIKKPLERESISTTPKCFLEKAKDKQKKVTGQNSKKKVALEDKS
UniProt Q9Y2Q3: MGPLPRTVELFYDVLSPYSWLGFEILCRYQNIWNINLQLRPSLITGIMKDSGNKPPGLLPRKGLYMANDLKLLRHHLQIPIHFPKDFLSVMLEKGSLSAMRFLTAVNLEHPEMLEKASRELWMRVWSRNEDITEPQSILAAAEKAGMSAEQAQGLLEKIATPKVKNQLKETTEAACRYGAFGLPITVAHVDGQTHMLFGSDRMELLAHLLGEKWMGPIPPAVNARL
UniProt Q9UH62: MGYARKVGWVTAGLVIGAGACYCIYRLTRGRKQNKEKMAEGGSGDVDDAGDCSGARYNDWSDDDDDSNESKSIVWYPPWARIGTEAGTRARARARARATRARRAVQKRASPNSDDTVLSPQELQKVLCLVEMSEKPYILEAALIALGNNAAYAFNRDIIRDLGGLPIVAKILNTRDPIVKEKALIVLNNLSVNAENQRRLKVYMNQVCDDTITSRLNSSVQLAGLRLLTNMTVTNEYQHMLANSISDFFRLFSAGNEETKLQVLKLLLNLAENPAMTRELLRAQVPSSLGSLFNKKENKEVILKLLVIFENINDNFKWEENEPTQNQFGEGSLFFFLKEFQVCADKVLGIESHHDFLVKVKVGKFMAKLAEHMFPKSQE
UniProt Q9UPU5: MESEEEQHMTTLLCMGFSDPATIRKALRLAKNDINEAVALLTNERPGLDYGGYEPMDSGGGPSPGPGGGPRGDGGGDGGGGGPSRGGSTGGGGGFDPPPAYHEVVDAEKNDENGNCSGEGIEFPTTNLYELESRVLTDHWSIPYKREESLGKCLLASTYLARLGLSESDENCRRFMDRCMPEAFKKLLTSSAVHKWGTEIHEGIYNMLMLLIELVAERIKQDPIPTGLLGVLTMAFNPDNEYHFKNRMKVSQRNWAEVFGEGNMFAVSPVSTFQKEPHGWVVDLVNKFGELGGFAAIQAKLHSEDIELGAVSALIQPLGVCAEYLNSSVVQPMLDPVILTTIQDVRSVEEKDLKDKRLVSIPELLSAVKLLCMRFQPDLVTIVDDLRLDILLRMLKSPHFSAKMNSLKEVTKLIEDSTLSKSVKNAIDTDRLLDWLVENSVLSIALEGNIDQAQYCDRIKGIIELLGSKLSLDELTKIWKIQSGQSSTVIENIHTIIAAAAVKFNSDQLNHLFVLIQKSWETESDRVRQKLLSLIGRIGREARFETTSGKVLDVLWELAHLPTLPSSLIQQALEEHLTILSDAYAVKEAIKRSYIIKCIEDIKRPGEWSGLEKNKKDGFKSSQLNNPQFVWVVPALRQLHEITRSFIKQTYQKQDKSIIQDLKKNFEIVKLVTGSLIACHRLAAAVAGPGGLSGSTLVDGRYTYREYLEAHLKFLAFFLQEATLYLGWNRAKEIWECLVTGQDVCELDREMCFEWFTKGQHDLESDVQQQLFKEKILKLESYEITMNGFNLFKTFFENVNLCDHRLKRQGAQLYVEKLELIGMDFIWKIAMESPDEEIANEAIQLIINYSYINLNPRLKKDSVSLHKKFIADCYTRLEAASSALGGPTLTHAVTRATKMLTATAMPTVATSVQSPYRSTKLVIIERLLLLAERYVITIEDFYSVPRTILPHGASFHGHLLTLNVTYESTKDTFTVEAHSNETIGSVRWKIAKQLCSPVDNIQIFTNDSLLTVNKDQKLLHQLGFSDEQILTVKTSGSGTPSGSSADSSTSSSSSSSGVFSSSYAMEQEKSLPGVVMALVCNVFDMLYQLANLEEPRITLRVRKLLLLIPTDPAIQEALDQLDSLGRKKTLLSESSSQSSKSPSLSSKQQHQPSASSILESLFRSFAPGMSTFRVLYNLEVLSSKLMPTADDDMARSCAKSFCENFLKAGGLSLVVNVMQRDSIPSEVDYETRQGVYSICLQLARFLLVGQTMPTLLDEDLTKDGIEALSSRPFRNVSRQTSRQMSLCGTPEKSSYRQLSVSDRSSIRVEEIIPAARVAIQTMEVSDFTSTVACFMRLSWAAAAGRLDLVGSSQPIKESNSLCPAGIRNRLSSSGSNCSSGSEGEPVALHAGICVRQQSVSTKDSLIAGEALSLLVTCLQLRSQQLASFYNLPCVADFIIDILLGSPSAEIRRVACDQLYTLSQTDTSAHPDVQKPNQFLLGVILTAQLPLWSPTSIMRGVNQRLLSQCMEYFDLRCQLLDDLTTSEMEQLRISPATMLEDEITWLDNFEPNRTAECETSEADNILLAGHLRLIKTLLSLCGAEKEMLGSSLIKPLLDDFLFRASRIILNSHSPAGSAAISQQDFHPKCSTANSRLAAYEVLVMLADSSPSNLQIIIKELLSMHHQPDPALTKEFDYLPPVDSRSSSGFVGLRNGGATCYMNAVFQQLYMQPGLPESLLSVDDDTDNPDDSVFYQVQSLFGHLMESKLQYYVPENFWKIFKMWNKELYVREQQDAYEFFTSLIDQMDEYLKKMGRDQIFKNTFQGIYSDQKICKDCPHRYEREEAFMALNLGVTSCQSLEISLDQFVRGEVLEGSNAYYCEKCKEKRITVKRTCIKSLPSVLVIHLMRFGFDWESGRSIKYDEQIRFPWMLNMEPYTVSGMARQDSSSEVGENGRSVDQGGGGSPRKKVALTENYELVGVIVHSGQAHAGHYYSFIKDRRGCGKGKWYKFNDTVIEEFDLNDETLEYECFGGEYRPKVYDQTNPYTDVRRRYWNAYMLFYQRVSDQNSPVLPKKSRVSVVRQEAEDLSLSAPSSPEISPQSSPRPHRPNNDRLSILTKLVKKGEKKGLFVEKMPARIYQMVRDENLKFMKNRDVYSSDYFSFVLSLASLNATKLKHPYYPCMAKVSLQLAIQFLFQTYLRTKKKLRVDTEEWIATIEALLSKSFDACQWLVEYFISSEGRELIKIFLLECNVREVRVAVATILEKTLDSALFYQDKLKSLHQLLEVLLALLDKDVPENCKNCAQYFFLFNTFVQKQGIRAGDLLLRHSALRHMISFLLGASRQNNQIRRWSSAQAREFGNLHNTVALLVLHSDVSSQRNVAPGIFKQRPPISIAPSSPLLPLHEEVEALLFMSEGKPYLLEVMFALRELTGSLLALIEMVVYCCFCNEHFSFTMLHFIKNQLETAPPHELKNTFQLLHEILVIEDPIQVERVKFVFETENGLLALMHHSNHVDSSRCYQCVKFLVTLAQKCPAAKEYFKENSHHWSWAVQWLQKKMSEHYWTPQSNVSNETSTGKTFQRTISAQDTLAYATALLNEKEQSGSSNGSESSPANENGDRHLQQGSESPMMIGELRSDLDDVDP
UniProt Q9UJX5, whole entry: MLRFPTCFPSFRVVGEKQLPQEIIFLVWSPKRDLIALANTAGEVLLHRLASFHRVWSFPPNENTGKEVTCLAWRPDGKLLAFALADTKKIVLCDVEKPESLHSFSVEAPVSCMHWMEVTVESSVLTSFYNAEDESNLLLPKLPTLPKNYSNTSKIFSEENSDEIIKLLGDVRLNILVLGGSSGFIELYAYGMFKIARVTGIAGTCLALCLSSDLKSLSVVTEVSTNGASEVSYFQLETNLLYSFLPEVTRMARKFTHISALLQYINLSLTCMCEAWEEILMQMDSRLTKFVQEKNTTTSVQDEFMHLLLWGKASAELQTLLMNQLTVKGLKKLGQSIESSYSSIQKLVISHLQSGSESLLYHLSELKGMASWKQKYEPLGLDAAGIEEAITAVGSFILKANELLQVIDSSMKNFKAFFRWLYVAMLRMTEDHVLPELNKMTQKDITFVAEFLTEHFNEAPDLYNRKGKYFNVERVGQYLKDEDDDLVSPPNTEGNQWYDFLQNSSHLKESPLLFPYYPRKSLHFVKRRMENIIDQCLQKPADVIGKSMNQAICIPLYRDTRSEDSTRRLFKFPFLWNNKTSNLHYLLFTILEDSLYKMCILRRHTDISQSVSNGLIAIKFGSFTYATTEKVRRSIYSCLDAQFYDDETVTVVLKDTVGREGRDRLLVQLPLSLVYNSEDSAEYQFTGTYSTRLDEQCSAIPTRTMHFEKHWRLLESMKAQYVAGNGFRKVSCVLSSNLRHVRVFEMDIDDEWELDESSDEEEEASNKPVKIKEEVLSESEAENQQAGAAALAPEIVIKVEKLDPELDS

± gives the standard deviation of the averaged measurements. The entries are a selection whose mix differs from that of the whole data set. Small differences around the control level are noise.

Compound in the assay: Nc1ncnc2c1ncn2[C@@H]1O[C@H](COP(=O)(O)OP(=O)(O)NP(=O)(O)O)[C@@H](O)[C@H]1O [adenylyl imidodiphosphate]
The assay is described as follows: NP40-soluble protein abundance relative to vehicle (solubility fold change) (ratio); higher = more soluble protein in presence of AMP-PNP. The conditions noted are these: concentration: 0.5mM. The gist of the method: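 Jurkat crude lysate (Dounce-homogenised) was treated with eight concentrations from 0.1 to 10 mM for 10 min at room temperature, then 3 min at 37 °C. It was solubilised with 0.8% NP40 and benzonase (60 min, 4 °C) and ultracentrifuged, and the supernatant was TMT-labelled for LC-MS/MS. Intensities were vsn-normalised, and the value is the fold change against the NP40-processed vehicle per replicate, from three independent experiments.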
For CGGBP1 (UniProt Q9UFW8), the NP40-soluble protein abundance amounted to 1.04 ± 0.066. The figure for VTI1B (UniProt Q9UEU0) is 0.997 ± 0.033. The figure for UniProt Q9UJY4 and related entries is 0.9821 ± 0.005; for UniProt Q9UJU6 and related entries it is 1 ± 0.014. The same measure for FAM8A1 (UniProt Q9UBU6): 0.978 ± 0.026; for UniProt Q9UPZ3 and related entries: 1.02 ± 0.022.

For the target DDX52 (UniProt Q9Y2R4), the NP40-soluble protein abundance amounted to 1.04 ± 0.046.

Consider TTF2 (UniProt Q9UNY4), for which the NP40-soluble protein abundance amounted to 0.999 ± 0.029. The figure for GSTK1 (UniProt Q9Y2Q3) is 1.03 ± 0.04; for USP20 (UniProt Q9Y2K6) it is 1.02 ± 0.014. As for PACSIN3 (UniProt Q9UKS6), the NP40-soluble protein abundance is 1.02 ± 0.071.

As to “UniProt Q9UK53-2|A0A0C4DFW2|Q9UK53 and related entries”, the NP40-soluble protein abundance was found to be 1.01 ± 0.038. In the case of ARMCX3 (UniProt Q9UH62), the NP40-soluble protein abundance was 1.02 ± 0.057. The figure for UniProt Q9UI10 and related entries is 0.982 ± 0.028; for UniProt Q9ULK4 and related entries it is 1 ± 0.063. The same measure for “UniProt Q9UPQ9-1|Q9UPQ9 and related entries”: 0.981 ± 0.046. The same measure for CHORDC1 (UniProt Q9UHD1): 0.974 ± 0.043; for UniProt Q9Y2A7 and related entries: 0.98 ± 0.017. In the case of COPS3 (UniProt Q9UNS2), the NP40-soluble protein abundance came to 1 ± 0.019. The figure for UniProt Q9ULH0 and related entries is 0.982 ± 0.058; for UniProt Q9Y316 and related entries it is 0.985 ± 0.099.

Take CDC23 (UniProt Q9UJX2): the NP40-soluble protein abundance was determined as 1.01 ± 0.012. The same measure for PLXNA1 (UniProt Q9UIW2): 0.999 ± 0.0042. The same measure for UniProt Q9ULL5-3: 1.01 ± 0.02; for UniProt Q9UL18: 1.04 ± 0.011. The figure for UniProt Q9UHD8 and related entries is 1.01 ± 0.042; for UniProt Q9UNL4 and related entries it is 1.02 ± 0.032. For the target USP24 (UniProt Q9UPU5), the NP40-soluble protein abundance was found to be 0.964 ± 0.05. The figure for UniProt Q9UI12 and related entries is 0.989 ± 0.016. The figure for MRPS16 (UniProt Q9Y3D3) is 1.02 ± 0.042. The figure for UniProt Q9UEE5 is 1.04 ± 0.046; for UniProt Q9UJX5 and related entries it is 0.993 ± 0.019; for UniProt Q9ULJ3 and related entries it is 1.005 ± 0.0063. Turning to UniProt Q9UBT2 and related entries, the NP40-soluble protein abundance stood at 1.04 ± 0.05. Consider UniProt Q9Y250 and related entries, for which the NP40-soluble protein abundance came to 1.02 ± 0.036. The figure for UniProt Q9UKW4 and related entries is 1.02 ± 0.024; for UniProt Q9UBU8 and related entries it is 1.04 ± 0.047.
